According to US20260158064A1 (NANJING PROBIO BIOTECH, published 2026):
These are yes or no findings as the source states them, for the method shown. Some results given as binding are weak or reduced against the parent protein; the word gives no strength.

Amino acid sequences for entries named in this document (tags omitted). Residues count along the entry.
UniProt Q01973, residues 30-937: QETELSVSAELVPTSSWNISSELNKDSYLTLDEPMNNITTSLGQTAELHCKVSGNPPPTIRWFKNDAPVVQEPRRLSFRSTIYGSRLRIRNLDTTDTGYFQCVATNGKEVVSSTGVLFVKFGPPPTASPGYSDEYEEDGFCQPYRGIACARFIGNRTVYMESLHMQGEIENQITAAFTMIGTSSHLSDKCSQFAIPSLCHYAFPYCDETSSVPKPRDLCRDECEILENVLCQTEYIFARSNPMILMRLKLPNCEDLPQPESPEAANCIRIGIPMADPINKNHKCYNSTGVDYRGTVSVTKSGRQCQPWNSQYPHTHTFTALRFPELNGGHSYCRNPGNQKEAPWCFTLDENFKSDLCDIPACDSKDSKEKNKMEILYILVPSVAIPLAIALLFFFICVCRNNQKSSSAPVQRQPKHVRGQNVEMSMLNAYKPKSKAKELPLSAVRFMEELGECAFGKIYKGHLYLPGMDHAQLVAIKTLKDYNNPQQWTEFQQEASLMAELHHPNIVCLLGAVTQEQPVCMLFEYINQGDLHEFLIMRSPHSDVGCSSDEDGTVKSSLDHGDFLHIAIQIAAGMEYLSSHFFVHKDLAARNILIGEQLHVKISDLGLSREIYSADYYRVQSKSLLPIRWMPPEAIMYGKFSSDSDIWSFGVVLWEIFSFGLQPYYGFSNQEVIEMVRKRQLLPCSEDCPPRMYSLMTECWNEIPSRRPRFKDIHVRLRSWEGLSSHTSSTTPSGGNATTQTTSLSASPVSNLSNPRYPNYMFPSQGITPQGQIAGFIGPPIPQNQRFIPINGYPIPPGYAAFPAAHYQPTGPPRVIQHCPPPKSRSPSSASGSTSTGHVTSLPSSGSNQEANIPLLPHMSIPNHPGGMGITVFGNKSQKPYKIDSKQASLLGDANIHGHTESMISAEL
UniProt Q9Z139, residues 30-937: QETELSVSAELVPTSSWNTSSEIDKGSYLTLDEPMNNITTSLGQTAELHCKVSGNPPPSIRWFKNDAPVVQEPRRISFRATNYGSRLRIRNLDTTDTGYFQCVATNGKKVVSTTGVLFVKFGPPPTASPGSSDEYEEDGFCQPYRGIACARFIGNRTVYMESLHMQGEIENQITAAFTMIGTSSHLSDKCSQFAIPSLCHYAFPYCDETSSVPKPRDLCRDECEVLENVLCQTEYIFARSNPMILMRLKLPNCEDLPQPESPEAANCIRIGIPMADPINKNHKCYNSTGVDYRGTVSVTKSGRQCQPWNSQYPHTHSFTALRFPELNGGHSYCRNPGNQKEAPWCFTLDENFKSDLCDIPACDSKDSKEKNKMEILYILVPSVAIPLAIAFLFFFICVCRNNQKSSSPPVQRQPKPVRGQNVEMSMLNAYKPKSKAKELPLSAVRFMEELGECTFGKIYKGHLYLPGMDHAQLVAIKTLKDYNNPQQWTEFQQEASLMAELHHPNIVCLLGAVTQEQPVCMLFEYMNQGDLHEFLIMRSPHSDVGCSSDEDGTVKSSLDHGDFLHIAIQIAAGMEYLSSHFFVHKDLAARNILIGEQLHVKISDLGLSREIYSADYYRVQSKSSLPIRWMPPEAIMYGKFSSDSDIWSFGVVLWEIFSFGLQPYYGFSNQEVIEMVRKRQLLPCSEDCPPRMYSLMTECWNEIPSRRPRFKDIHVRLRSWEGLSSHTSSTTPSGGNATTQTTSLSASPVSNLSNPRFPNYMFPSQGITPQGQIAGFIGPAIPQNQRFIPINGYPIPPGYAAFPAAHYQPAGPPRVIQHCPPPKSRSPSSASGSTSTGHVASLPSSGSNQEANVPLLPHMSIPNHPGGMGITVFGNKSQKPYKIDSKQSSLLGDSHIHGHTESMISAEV

Experiments:
[1] = molecular target: human ROR1 expressed on CHO cells (CHO-K1/Human ROR1 stable cells) (human) (UniProt Q01973); assay: flow cytometry, antibody at 10 ug/ml on CHO cells
[2] = molecular target: mouse ROR1 expressed on CHO cells (CHO-K1/Mouse ROR1 stable cells) (mouse) (UniProt Q9Z139); assay: flow cytometry, antibody at 10 ug/ml on CHO cells

binding [1] | binding [2] | Binder
binds | binds | humanized single domain antibody AHP15485-VHH4 (Fc fusion, Humanized VHH expressed from pcDNA3.4-Fc (Human IgG1); not shown: human IgG1 Fc of the pcDNA3.4-Fc (Human IgG1) expression vector) EVQLVESGGGLVQPGGSLRLSCAASGRSFSNFQMGWFRQAPGKEREFVAASGWSGGPTYYADSVKGRFTISTDNSKNTLYLQMNSLRAEDTAVYYCYEDRVLSGRPVRYWGQGTLVTVSS
binds | binds | humanized single domain antibody AHP15662-VHH4 (Fc fusion, Humanized VHH expressed from pcDNA3.4-Fc (Human IgG1); not shown: human IgG1 Fc of the pcDNA3.4-Fc (Human IgG1) expression vector) EVQLVESGGGLVQPGGSLRLSCAASGSISRFYAVGWYRQAPGKQRELVARISSGGSTYYADSVKGRFTISIDNSKNTLYLQMNSLRAEDTAVYYCNARNLWGQGTLVTVSS
binds | binds | humanized single domain antibody AHP15773-VHH4 (Fc fusion, Humanized VHH expressed from pcDNA3.4-Fc (Human IgG1); not shown: human IgG1 Fc of the pcDNA3.4-Fc (Human IgG1) expression vector) EVQLVESGGGLVQPGGSLRLSCAASGSDFSDSAMGWYRQAPGKQREFVAAIGAGGITTYADSVKGRFTISRDNAKNTLYLQMNSLRAEDTAVYFCNFAPGWYPPGYQYWGQGTLVTVSS
